Reference: paper PMC4786259 (PLoS ONE, 2016)

Tests used:
[1] = system: WT and dopamine transporter knockout (DAT-KO) mice; assay: Prepulse inhibition in WT and DAT-KO mice; conditions: for null activity in DAT-KO mice: compared to vehicle group; for null activity in WT mice: relative to the vehicle control
[2] = system: C57BL/6J mice; assay: Prepulse inhibition, PCP-disrupted; format: in vivo

Compound	null activity in DAT-KO mice ([1]; 2 mg/kg clozapine)	startle responses ([1]; 2 mg/kg clozapine, regardless of genotype)	null activity in WT mice ([1]; 2 mg/kg clozapine)	null activity in WT mice ([1]; 5 mg/kg nuciferine)	null activity in DAT-KO mice ([1]; all doses of nuciferine)	startle responses ([2]; 5 mg/kg i.p.)	startle responses ([2]; 10 mg/kg i.p.)
CN1CCN(C2=Nc3cc(Cl)ccc3Nc3ccccc32)CC1 [clozapine]	significantly augmented	higher startle responses than all other groups	significantly enhanced	–	–	–	–
COc1cc2c3c(c1OC)-c1ccccc1C[C@H]3N(C)CC2 [nuciferine]	–	–	–	significantly enhanced	significantly augmented	lower than those of the vehicle-treated groups	lower than those of the vehicle-treated groups
